Experimental data reported in paper PMC9496679.

Amino acid sequences for entries named in this document (tags omitted). A change or cut given only in a name is not applied to a line headed by its entry. Residues count along the entry.
UniProt P07237, residues 18-508: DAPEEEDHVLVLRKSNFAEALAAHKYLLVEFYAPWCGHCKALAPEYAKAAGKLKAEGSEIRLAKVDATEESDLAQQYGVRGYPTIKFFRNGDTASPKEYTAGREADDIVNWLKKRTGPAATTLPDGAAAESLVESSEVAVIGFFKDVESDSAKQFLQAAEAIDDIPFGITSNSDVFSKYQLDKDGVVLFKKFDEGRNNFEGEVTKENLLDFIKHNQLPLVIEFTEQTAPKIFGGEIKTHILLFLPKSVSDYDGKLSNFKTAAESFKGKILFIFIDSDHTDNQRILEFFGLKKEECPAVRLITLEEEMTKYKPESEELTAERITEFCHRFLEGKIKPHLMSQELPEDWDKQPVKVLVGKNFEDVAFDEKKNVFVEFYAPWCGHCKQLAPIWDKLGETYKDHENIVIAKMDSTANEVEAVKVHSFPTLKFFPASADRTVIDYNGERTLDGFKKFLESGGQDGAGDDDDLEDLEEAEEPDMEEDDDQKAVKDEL
UniProt Q7Z434: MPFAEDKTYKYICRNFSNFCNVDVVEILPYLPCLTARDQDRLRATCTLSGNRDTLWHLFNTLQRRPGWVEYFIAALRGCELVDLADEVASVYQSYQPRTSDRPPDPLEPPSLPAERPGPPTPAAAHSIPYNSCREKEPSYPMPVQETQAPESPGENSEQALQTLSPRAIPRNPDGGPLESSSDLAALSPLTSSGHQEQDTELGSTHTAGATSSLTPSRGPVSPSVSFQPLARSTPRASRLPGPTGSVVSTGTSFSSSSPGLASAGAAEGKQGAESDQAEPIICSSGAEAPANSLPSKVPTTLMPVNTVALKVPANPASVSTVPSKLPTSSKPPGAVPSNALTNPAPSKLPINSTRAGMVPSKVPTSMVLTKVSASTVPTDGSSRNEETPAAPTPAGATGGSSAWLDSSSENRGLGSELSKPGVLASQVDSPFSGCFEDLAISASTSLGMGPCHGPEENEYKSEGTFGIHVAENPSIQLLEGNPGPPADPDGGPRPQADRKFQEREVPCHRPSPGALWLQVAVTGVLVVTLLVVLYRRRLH
UniProt P11021, residues 19-654: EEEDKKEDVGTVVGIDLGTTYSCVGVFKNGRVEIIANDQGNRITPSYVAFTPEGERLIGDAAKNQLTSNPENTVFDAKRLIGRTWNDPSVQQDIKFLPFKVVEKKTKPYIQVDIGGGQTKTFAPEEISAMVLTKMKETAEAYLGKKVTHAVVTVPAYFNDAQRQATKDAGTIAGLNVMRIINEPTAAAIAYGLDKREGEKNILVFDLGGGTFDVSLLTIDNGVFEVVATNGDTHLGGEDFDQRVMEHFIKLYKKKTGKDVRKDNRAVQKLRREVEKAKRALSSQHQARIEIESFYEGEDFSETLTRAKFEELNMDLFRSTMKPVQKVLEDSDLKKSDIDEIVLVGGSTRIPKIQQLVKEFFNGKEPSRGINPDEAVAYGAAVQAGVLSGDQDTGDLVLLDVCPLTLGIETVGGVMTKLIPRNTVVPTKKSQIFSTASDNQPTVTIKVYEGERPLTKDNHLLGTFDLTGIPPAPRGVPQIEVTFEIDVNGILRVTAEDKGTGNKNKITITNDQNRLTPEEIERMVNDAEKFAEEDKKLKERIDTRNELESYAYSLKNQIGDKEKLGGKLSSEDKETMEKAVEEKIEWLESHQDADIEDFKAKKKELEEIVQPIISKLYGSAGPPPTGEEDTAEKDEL
UniProt P21796: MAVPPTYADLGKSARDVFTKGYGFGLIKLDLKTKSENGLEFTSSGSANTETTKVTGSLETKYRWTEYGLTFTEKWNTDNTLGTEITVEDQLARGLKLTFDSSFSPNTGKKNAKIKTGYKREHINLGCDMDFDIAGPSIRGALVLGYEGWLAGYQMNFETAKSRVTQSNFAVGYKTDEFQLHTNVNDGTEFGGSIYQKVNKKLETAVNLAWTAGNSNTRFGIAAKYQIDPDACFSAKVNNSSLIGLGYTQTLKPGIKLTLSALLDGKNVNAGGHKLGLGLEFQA
UniProt P35613, residues 22-385: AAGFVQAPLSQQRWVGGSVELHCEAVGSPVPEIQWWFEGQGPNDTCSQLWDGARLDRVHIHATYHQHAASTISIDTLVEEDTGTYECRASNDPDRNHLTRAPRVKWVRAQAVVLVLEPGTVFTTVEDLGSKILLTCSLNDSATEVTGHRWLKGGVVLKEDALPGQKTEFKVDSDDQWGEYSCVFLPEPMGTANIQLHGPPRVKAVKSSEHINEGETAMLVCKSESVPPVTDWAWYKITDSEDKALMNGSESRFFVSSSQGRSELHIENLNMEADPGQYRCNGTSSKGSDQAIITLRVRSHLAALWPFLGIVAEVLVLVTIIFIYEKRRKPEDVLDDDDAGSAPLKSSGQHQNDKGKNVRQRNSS
UniProt P38646, residues 47-679: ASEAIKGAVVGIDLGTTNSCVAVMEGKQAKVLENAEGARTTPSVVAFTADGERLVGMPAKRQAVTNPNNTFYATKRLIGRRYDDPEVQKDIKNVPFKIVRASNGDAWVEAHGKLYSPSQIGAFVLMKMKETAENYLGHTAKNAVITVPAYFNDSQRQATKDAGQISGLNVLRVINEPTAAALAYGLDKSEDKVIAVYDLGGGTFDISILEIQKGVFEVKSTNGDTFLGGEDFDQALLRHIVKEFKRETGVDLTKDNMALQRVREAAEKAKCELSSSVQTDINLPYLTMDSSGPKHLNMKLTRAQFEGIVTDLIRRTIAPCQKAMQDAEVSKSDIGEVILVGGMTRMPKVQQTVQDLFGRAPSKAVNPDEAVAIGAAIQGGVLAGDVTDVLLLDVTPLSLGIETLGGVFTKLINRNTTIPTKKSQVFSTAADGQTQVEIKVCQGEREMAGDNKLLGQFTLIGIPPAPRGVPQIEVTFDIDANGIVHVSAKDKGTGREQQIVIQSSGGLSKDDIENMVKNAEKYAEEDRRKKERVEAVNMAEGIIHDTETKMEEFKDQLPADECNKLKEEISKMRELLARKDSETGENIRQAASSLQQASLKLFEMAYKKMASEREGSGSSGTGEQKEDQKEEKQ
UniProt Q6P1M0: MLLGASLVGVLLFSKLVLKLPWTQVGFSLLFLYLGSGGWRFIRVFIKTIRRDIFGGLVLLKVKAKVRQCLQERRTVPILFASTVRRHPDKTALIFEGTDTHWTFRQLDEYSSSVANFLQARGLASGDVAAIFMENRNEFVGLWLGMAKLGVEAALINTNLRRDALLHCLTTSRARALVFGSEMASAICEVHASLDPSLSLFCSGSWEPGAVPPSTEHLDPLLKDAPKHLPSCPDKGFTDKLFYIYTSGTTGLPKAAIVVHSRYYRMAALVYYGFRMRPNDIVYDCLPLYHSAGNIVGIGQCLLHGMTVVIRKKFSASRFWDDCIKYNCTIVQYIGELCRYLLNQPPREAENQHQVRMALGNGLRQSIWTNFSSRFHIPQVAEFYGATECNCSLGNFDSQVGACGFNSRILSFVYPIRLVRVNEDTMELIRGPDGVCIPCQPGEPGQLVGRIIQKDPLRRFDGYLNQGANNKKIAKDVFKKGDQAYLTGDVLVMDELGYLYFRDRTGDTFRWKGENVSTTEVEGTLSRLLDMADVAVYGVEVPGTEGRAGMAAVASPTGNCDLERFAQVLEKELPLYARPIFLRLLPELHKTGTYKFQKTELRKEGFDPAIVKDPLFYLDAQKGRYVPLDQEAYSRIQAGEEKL
UniProt P27824, residues 21-592: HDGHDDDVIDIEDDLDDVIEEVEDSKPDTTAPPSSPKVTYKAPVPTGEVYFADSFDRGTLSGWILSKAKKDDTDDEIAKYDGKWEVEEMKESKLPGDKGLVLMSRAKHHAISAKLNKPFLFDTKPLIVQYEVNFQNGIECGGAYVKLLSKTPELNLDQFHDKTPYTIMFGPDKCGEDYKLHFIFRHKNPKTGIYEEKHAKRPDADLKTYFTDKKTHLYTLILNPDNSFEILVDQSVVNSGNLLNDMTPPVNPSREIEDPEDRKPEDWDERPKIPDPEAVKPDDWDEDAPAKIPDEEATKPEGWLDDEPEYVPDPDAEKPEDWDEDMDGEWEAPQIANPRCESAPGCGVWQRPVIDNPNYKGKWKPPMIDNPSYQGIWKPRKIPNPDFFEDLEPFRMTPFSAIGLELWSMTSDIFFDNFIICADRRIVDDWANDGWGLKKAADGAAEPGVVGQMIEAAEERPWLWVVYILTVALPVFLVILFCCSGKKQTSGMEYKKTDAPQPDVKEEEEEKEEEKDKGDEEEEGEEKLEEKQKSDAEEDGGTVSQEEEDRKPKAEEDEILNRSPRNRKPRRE
UniProt Q99720: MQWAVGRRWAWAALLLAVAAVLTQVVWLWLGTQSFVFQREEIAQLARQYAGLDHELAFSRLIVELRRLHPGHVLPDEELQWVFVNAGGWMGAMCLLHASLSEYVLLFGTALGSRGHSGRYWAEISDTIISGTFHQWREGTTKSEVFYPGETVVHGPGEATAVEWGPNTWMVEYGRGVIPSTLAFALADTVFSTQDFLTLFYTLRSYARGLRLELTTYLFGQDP
UniProt Q15388: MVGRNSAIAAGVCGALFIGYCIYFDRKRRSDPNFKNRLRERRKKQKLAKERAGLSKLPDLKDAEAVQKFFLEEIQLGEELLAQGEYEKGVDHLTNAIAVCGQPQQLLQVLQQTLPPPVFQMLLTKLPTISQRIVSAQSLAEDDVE

T1: Strep II/FLAG (SF)-tagged human VLGR1_CTF (human) (UniProt Q8WXG9)
T1 sequence: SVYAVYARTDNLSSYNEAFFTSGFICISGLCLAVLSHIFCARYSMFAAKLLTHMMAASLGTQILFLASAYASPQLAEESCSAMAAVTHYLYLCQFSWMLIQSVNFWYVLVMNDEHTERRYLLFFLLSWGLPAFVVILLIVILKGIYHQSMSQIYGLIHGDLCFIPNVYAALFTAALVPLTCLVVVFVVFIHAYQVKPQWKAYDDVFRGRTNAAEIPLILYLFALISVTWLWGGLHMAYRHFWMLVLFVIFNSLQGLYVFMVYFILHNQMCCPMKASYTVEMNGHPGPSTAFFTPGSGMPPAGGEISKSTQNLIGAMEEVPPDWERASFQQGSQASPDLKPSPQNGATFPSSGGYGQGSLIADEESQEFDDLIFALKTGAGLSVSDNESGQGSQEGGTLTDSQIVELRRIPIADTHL


Assays:
[1] = molecular target: T1, Strep II/FLAG (SF)-tagged human VLGR1_CTF (human); experiment: affinity purification with mass spectrometry; tandem affinity purification (Strep-Tactin Superflow, then anti-FLAG M2 agarose) of N- and C-terminally SF-tagged VLGR1_CTF expressed 48 h in hTERT-RPE1 cells; LC-MS/MS; preys of mock and RAF1 TAPs excluded; N- and C-tagged baits pooled
[2] = molecular target: T1, Strep II/FLAG (SF)-tagged human VLGR1_CTF (human); experiment: affinity purification with mass spectrometry; tandem affinity purification (Strep-Tactin Superflow, then anti-FLAG M2 agarose; elution with desthiobiotin and FLAG peptide) of N- and C-terminally SF-tagged VLGR1_CTF expressed 48 h in HEK293T cells; LC-MS/MS; preys of mock and RAF1 TAPs excluded; N- and C-tagged baits pooled
[3] = molecular target: T1, Strep II/FLAG (SF)-tagged human VLGR1_CTF (human); experiment: affinity purification with mass spectrometry; VLGR1_CTF TAPs; the cell line (HEK293T or hTERT-RPE1) is not told for this prey

Molecule	binding [1]	binding [2]	binding [3]
Protein disulfide-isomerase (from UniProt P07237 18-508) (enzyme)	binds	binds	–
Mito. antiviral-signaling protein (from UniProt Q7Z434 1-540)	binds	binds	–
Heat shock protein 5 (from UniProt P11021 19-654)	binds	binds	–
Reticulon 4, neurite outgrowth inhibitor, Nogo-A (from UniProt Q9NQC3-1 1-1192)	binds	binds	–
Voltage-dependent anion-channel 1 (from UniProt P21796 1-283)	binds	binds	–
Basigin (from UniProt P35613 22-385)	binds	binds	–
Mitochondrial heat shock protein 9 (from UniProt P38646 47-679)	binds	binds	–
Long-chain fatty acid transport protein 4 (from UniProt Q6P1M0 1-643)	binds	binds	–
Calnexin (from UniProt P27824 21-592)	binds	binds	–
sigma-1 receptor (S1R), endogenous (from UniProt Q99720 1-223)	binds	binds	–
mitochondrial import receptor subunit TOM20, endogenous (from UniProt Q15388 1-145)	–	–	binds
PTDSS2 (phosphatidylserine synthase) (enzyme, UniProt Q9BVG9 1-487) MRRGERRDAGGPRPESPVPAGRASLEEPPDGPSAGQATGPGEGRRSTESEVYDDGTNTFFWRAHTLTVLFILTCTLGYVTLLEETPQDTAYNTKRGIVASILVFLCFGVTQAKDGPFSRPHPAYWRFWLCVSVVYELFLIFILFQTVQDGRQFLKYVDPKLGVPLPERDYGGNCLIYDPDNETDPFHNIWDKLDGFVPAHFLGWYLKTLMIRDWWMCMIISVMFEFLEYSLEHQLPNFSECWWDHWIMDVLVCNGLGIYCGMKTLEWLSLKTYKWQGLWNIPTYKGKMKRIAFQFTPYSWVRFEWKPASSLRRWLAVCGIILVFLLAELNTFYLKFVLWMPPEHYLVLLRLVFFVNVGGVAMREIYDFMDDPKPHKKLGPQAWLVAAITATELLIVVKYDPHTLTLSLPFYISQCWTLGSVLALTWTVWRFFLRDITLRYKETRWQKWQNKDDQGSTVGNGDQHPLGLDEDLLGPGVAEGEGAPTPN	–	binds	–
Wolframin, ER, transmembrane (protein, UniProt O76024 1-890) MDSNTAPLGPSCPQPPPAPQPQARSRLNATASLEQERSERPRAPGPQAGPGPGVRDAAAPAEPQAQHTRSRERADGTGPTKGDMEIPFEEVLERAKAGDPKAQTEVGKHYLQLAGDTDEELNSCTAVDWLVLAAKQGRREAVKLLRRCLADRRGITSENEREVRQLSSETDLERAVRKAALVMYWKLNPKKKKQVAVAELLENVGQVNEHDGGAQPGPVPKSLQKQRRMLERLVSSESKNYIALDDFVEITKKYAKGVIPSSLFLQDDEDDDELAGKSPEDLPLRLKVVKYPLHAIMEIKEYLIDMASRAGMHWLSTIIPTHHINALIFFFIVSNLTIDFFAFFIPLVIFYLSFISMVICTLKVFQDSKAWENFRTLTDLLLRFEPNLDVEQAEVNFGWNHLEPYAHFLLSVFFVIFSFPIASKDCIPCSELAVITGFFTVTSYLSLSTHAEPYTRRALATEVTAGLLSLLPSMPLNWPYLKVLGQTFITVPVGHLVVLNVSVPCLLYVYLLYLFFRMAQLRNFKGTYCYLVPYLVCFMWCELSVVILLESTGLGLLRASIGYFLFLFALPILVAGLALVGVLQFARWFTSLELTKIAVTVAVCSVPLLLRWWTKASFSVVGMVKSLTRSSMVKLILVWLTAIVLFCWFYVYRSEGMKVYNSTLTWQQYGALCGPRAWKETNMARTQILCSHLEGHRVTWTGRFKYVRVTDIDNSAESAINMLPFFIGDWMRCLYGEAYPACSPGNTSTAEEELCRLKLLAKHPCHIKKFDRYKFEITVGMPFSSGADGSRSREEDDVTKDIVLRASSEFKSVLLSLRQGSLIEFSTILEGRLGSKWPVFELKAISCLNCMAQLSPTRRHVKIEHDWRSTVHGAVKFAFDFFFFPFLSAA	–	binds	–
CDGSH iron sulfur domain 2 (protein, UniProt Q8N5K1 1-135) MVLESVARIVKVQLPAYLKRLPVPESITGFARLTVSEWLRLLPFLGVLALLGYLAVRPFLPKKKQQKDSLINLKIQKENPKVVNEINIEDLCLTKAAYCRCWRSKTFPACDGSHNKHNELTGDNVGPLILKKKEV	–	binds	–
Reticulon-2 (protein, UniProt O75298 1-545) MGQVLPVFAHCKEAPSTASSTPDSTEGGNDDSDFRELHTAREFSEEDEEETTSQDWGTPRELTFSYIAFDGVVGSGGRRDSTARRPRPQGRSVSEPRDQHPQPSLGDSLESIPSLSQSPEPGRRGDPDTAPPSERPLEDLRLRLDHLGWVARGTGSGEDSSTSSSTPLEDEEPQEPNRLETGEAGEELDLRLRLAQPSSPEVLTPQLSPGSGTPQAGTPSPSRSRDSNSGPEEPLLEEEEKQWGPLEREPVRGQCLDSTDQLEFTVEPRLLGTAMEWLKTSLLLAVYKTVPILELSPPLWTAIGWVQRGPTPPTPVLRVLLKWAKSPRSSGVPSLSLGADMGSKVADLLYWKDTRTSGVVFTGLMVSLLCLLHFSIVSVAAHLALLLLCGTISLRVYRKVLQAVHRGDGANPFQAYLDVDLTLTREQTERLSHQITSRVVSAATQLRHFFLVEDLVDSLKLALLFYILTFVGAIFNGLTLLILGVIGLFTIPLLYRQHQAQIDQYVGLVTNQLSHIKAKIRAKIPGTGALASAAAAVSGSKAKAE	binds	binds	–
Phosphatidylinositol glycan anchor biosynthesis, class N (enzyme, UniProt O95427 1-931) MLLFFTLGLLIHFVFFASIFDIYFTSPLVHGMTPQFTPLPPPARRLVLFVADGLRADALYELDENGNSRAPFIRNIIMHEGSWGISHTRVPTESRPGHVALIAGFYEDVSAVAKGWKENPVEFDSLFNESKYTWSWGSPDILPMFAKGASGDHVYTYSYDAKREDFGAQDATKLDTWVFDNVKDFFHHARNNQSLFSKINEEKIVFFLHLLGIDTNGHAHRPSSRDYKHNIKKVDDGVKEIVSMFNHFYGNDGKTTFIFTSDHGMTDWGSHGAGHPSETLTPLVTWGAGIKYPQRVSAQQFDDAFLKEWRLENWKRLDVNQADIAPLMTSLIGVPFPLNSVGILPVDYLNNTDLFKAESMFTNAVQILEQFKVKMTQKKEVTLPFLFTPFKLLSDSKQFNILRKARSYIKHRKFDEVVSLCKELIHLALKGLSYYHTYDRFFLGVNVVIGFVGWISYASLLIIKSHSNLIKGVSKEVKKPSHLLPCSFVAIGILVAFFLLIQACPWTYYVYGLLPLPIWYAVLREFQVIQDLVVSVLTYPLSHFVGYLLAFTLGIEVLVLSFFYRYMLTAGLTAFAAWPFLTRLWTRAKMTSLSWTFFSLLLAVFPLMPVVGRKPDISLVMGAGLLVLLLSLCVVTSLMKRKDSFIKEELLVHLLQVLSTVLSMYVVYSTQSSLLRKQGLPLMNQIISWATLASSLVVPLLSSPVLFQRLFSILLSLMSTYLLLSTGYEALFPLVLSCLMFVWINIEQETLQQSGVCCKQKLTSIQFSYNTDITQFRQLYLDDIRRAFFLVFFLVTAFFGTGNIASINSFDLASVYCFLTVFSPFMMGALMMWKILIPFVLVMCAFEAVQLTTQLSSKSLFLIVLVISDIMALHFFFLVKDYGSWLDIGTSISHYVIVMSMTIFLVFLNGLAQLLTTKKLRLCGKPKSHFM	–	binds	–
Erlin-2 (protein, UniProt O94905 1-339) MAQLGAVVAVASSFFCASLFSAVHKIEEGHIGVYYRGGALLTSTSGPGFHLMLPFITSYKSVQTTLQTDEVKNVPCGTSGGVMIYFDRIEVVNFLVPNAVYDIVKNYTADYDKALIFNKIHHELNQFCSVHTLQEVYIELFDQIDENLKLALQQDLTSMAPGLVIQAVRVTKPNIPEAIRRNYELMESEKTKLLIAAQKQKVVEKEAETERKKALIEAEKVAQVAEITYGQKVMEKETEKKISEIEDAAFLAREKAKADAECYTAMKIAEANKLKLTPEYLQLMKYKAIASNSKIYFGKDIPNMFMDSAGSVSKQFEGLADKLSFGLEDEPLETATKEN	binds	binds	–
B-cell receptor-associated protein 31 (protein, UniProt P51572 1-246) MSLQWTAVATFLYAEVFVVLLLCIPFISPKRWQKIFKSRLVELLVSYGNTFFVVLIVILVLLVIDAVREIRKYDDVTEKVNLQNNPGAMEHFHMKLFRAQRNLYIAGFSLLLSFLLRRLVTLISQQATLLASNEAFKKQAESASEAAKKYMEENDQLKKGAAVDGGKLDVGNAEVKLEEENRSLKADLQKLKDELASTKQKLEKAENQVLAMRKQSEGLTKEYDRLLEEHAKLQAAVDGPMDKKEE	–	binds	–

These are yes or no findings as the source states them, for the method shown. In cells and extracts the contact can be indirect. These calls come from enrichment with a bait or labelling near it, and not all partners need be listed. Sequences can lack the tags named with a protein.
